# Assay results published in PMC7819943, “Rice protein-binding microarrays: a tool to detect cis-acting elements near promoter regions in rice”.
# The other results are listed elsewhere or left out.
# Target: T1, OsSMF1 (Oryza sativa, UniProt Q6ZLB0 1-436)
# T1 sequence: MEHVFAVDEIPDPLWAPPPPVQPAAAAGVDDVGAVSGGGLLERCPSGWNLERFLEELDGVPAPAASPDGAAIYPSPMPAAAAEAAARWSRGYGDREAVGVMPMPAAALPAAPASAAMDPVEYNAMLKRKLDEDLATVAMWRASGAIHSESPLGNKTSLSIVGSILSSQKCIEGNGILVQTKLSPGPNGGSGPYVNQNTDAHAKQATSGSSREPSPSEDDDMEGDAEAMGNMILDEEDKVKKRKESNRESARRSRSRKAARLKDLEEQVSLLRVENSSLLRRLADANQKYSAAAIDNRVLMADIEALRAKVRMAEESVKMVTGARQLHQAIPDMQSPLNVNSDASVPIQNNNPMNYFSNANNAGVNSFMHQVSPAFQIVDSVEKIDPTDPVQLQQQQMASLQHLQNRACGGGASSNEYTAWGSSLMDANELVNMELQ
# Assay: protein-binding microarray (RPBM); PBS, 2% BSA, 51.3 ng/ul salmon testes DNA, 50 uM zinc acetate, 200 nM TF, 25 C, 1 h; high values mean tight binding
# Conditions: protein: recombinant; tags: N-terminal polyhistidine and DsRed monomer fusion (pET32a); chain copies: 2; label: CyDye5-dUTP incorporated in the synthesized complementary strand; 3' TTTTT single-stranded linker to array surface; dsDNA, one strand shown
# How it was run: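 Binding signal here means per-feature fluorescence intensity in arbitrary units. The values were read on an Axon 4000B scanner after a custom Agilent array, double-stranded by primer extension with Cy5-dUTP, was incubated with 200 nM protein at 25 °C for 1 h in PBS with 2% BSA, salmon testes DNA and 50 µM zinc acetate, then washed. The proteins were transcription factors with an N-terminal polyhistidine tag and DsRed, expressed in E. coli BL21-CodonPlus and purified on Ni–NTA.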
row,Sequence,binding signal
1,TCTCTATAATTAAACATTCCAATTTCGAAAATGTTGTTAGCGGAGTCACCTAGTGCAG,14300 fluorescence intensity (a.u.)
2,GTTTCTAAAAGTAGTTTGAACACACGTATTCCCAAAATATCGGAGTCACCTAGTGCAG,3250 fluorescence intensity (a.u.)
3,TTATATCTTTTCTTATTAAGCCACATCATCTAAATTGTTTCGGAGTCACCTAGTGCAG,8210 fluorescence intensity (a.u.)
4,AGTTAATCCGTGTTCTTGGGTGACGAATTAACTGACGACCCGGAGTCACCTAGTGCAG,3140 fluorescence intensity (a.u.)
5,ACAGCACCACAGAGCTCAGCTCCTCACGTCTGATCAGACACGGAGTCACCTAGTGCAG,3640 fluorescence intensity (a.u.)
6,GAGTTGAGAGAGAAGAGGCAGTGTCATATTGGTTCCACATCGGAGTCACCTAGTGCAG,3400 fluorescence intensity (a.u.)
7,GATCTATGCTTCGATCTGCATGTTCCAAGTCATGGTGAAGCGGAGTCACCTAGTGCAG,4230 fluorescence intensity (a.u.)
8,CTGATGATGAGAAATACCACCAATTTGAGAGGGATTTATGCGGAGTCACCTAGTGCAG,3330 fluorescence intensity (a.u.)
9,TCCATTTATCCGCTTCCGCCTCCCCTCTCTCCCTGATGCACGGAGTCACCTAGTGCAG,31900 fluorescence intensity (a.u.)
10,GTGACTATGGTCAACGCCAACTAGGCTTGGACAATGAAAGCGGAGTCACCTAGTGCAG,3360 fluorescence intensity (a.u.)
11,CACGTCGATCCCACATGCTGACTCATCGAGTCGACCATGACGGAGTCACCTAGTGCAG,11900 fluorescence intensity (a.u.)
12,AAGTACTCTGCAACTGACTCAGCCACTGGGGCACCTGCATCGGAGTCACCTAGTGCAG,7610 fluorescence intensity (a.u.)
13,ACGCCGCGCGACGCGTGGCTACGACGTGTCGACACCCTAACGGAGTCACCTAGTGCAG,7510 fluorescence intensity (a.u.)
14,GAGAATCATCACTACATTCCTTTGCTACCATGGATTATGTCGGAGTCACCTAGTGCAG,21500 fluorescence intensity (a.u.)
15,CGCGGATGGATGGCGTGGCGATGGCCGAGGATGGATCCGGCGGAGTCACCTAGTGCAG,5280 fluorescence intensity (a.u.)
16,CAGGTGCGTTTCGGGCCCACGTGGCAGTGTGAGCCTGGCACGGAGTCACCTAGTGCAG,10800 fluorescence intensity (a.u.)
17,AACTAAGATCAAGAAATAATTAGCTACAGCAATTAGCAGGCGGAGTCACCTAGTGCAG,3690 fluorescence intensity (a.u.)
18,TGTCATGGAGGATTGCCGGAAGCCTGATGAGTCAGAACAACGGAGTCACCTAGTGCAG,3360 fluorescence intensity (a.u.)
19,ATTTCTATGGGATTCGTCTAGAAAGCTACGATTCCTAGTTCGGAGTCACCTAGTGCAG,22300 fluorescence intensity (a.u.)
20,CTCCTCTCCACCTCAGCTCCCTCCTCGTCGCCACCGTCGTCGGAGTCACCTAGTGCAG,7010 fluorescence intensity (a.u.)
21,ACTATCTGTGTTGTTGAGTTCTTGCGCGTGCGTGCGTCACCGGAGTCACCTAGTGCAG,7570 fluorescence intensity (a.u.)

# Two entries from above, with tabs.
row	Sequence	binding signal
11	CACGTCGATCCCACATGCTGACTCATCGAGTCGACCATGACGGAGTCACCTAGTGCAG	11900 fluorescence intensity (a.u.)
12	AAGTACTCTGCAACTGACTCAGCCACTGGGGCACCTGCATCGGAGTCACCTAGTGCAG	7610 fluorescence intensity (a.u.)

# Continuation.

row,Sequence,binding signal
1,ATCCGCCCTACTACATCCGTGCACCATCTTTCCCTTTCAGCGGAGTCACCTAGTGCAG,3300 fluorescence intensity (a.u.)
2,GTGTGCTGTGTGTGGTCTGAGATGATGTGTACTGCTGCTACGGAGTCACCTAGTGCAG,3950 fluorescence intensity (a.u.)
3,TGGGGATGTGTTGTGGTGAGCTGGAAAGTGCAAACTGGTTCGGAGTCACCTAGTGCAG,5530 fluorescence intensity (a.u.)
4,ATATGTATATATGCGTACGTCTGATTCATCGTTCATCTCCCGGAGTCACCTAGTGCAG,5110 fluorescence intensity (a.u.)
5,TCATCAAGCAAGAAGGCAGTACATCTTCTAAATGACGCAGCGGAGTCACCTAGTGCAG,4360 fluorescence intensity (a.u.)
6,TCACATGCATCCCTGACACGTCAGTATTTCGTTCCATAGCCGGAGTCACCTAGTGCAG,25800 fluorescence intensity (a.u.)
7,AGATTGCCATCGGACGCAGTAAAACGTGTCACTACCCCACCGGAGTCACCTAGTGCAG,7590 fluorescence intensity (a.u.)
8,TGCTATTGAGTTGTCAGCTTCATCCATAAACAAACACCCCCGGAGTCACCTAGTGCAG,4440 fluorescence intensity (a.u.)
9,CCGCCCAACGGCTTCGCCACGCTGCTCCGGCCACCCCTCTCGGAGTCACCTAGTGCAG,3840 fluorescence intensity (a.u.)
10,CTGTGGTCTCGTGCACCGCTGACACCCTCCTGCCACGCCGCGGAGTCACCTAGTGCAG,4500 fluorescence intensity (a.u.)
11,GTGTGTGTGACAGTGCAAGGAGGCAGGCCACCCACTTGGCCGGAGTCACCTAGTGCAG,3980 fluorescence intensity (a.u.)
12,AATAAGGCCCTATACGTGTTCCACGCCGGCACGCGGGTGTCGGAGTCACCTAGTGCAG,5530 fluorescence intensity (a.u.)
13,CGTCATTGGCGTAGCTAATGATTCCAAGTTTCCAACCCCTCGGAGTCACCTAGTGCAG,8780 fluorescence intensity (a.u.)
14,GGAACTTCTGTTTAGGCATTTGCACCTGAAATATGATCTGCGGAGTCACCTAGTGCAG,3190 fluorescence intensity (a.u.)
15,GTCCTCAGGCTCCAGAGGCCGAGTCGGCCCACATAGGCCCCGGAGTCACCTAGTGCAG,27200 fluorescence intensity (a.u.)
16,TATAAGTAACTTAAAGATTTGTGATGTGGATTTGGGATGTCGGAGTCACCTAGTGCAG,5400 fluorescence intensity (a.u.)
17,TTCTTCTCTGGTCTCCCCTGTGTGTTGCTGTTCTATTTCCCGGAGTCACCTAGTGCAG,16800 fluorescence intensity (a.u.)
18,CTAGGGTACGAGCAACAATAATAGAGAGTGACTGAGTGAGCGGAGTCACCTAGTGCAG,3250 fluorescence intensity (a.u.)
19,TATTTTAATTCTAATGCCACATAAGCGCCACATCACAGCCCGGAGTCACCTAGTGCAG,13300 fluorescence intensity (a.u.)
20,CTTCTTTCTTTGTTGCATCTAAGAATTGATGACCTCAGCCCGGAGTCACCTAGTGCAG,3170 fluorescence intensity (a.u.)
21,CAGCCCCGACGCTGGCGCCTGCATCAGCAGCTGCACATGCCGGAGTCACCTAGTGCAG,4090 fluorescence intensity (a.u.)
